Test results reported in paper PMC4576175.
No constants are given. Whether binding was seen depends on the method and setting. Some results given as binding are weak or reduced against the parent protein; the word gives no strength.

Chains of the proteins cited; added tags and fusions are not shown.
UniProt P20226: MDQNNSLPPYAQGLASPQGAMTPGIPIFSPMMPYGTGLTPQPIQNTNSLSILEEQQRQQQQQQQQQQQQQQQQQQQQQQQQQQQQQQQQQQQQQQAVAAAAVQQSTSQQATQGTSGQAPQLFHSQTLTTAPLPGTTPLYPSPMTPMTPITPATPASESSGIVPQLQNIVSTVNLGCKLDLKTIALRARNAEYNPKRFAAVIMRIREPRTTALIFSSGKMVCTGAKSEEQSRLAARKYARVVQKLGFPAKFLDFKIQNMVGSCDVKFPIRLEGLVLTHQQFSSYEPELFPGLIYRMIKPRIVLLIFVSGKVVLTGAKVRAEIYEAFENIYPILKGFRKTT
UniProt Q7Z6Z7: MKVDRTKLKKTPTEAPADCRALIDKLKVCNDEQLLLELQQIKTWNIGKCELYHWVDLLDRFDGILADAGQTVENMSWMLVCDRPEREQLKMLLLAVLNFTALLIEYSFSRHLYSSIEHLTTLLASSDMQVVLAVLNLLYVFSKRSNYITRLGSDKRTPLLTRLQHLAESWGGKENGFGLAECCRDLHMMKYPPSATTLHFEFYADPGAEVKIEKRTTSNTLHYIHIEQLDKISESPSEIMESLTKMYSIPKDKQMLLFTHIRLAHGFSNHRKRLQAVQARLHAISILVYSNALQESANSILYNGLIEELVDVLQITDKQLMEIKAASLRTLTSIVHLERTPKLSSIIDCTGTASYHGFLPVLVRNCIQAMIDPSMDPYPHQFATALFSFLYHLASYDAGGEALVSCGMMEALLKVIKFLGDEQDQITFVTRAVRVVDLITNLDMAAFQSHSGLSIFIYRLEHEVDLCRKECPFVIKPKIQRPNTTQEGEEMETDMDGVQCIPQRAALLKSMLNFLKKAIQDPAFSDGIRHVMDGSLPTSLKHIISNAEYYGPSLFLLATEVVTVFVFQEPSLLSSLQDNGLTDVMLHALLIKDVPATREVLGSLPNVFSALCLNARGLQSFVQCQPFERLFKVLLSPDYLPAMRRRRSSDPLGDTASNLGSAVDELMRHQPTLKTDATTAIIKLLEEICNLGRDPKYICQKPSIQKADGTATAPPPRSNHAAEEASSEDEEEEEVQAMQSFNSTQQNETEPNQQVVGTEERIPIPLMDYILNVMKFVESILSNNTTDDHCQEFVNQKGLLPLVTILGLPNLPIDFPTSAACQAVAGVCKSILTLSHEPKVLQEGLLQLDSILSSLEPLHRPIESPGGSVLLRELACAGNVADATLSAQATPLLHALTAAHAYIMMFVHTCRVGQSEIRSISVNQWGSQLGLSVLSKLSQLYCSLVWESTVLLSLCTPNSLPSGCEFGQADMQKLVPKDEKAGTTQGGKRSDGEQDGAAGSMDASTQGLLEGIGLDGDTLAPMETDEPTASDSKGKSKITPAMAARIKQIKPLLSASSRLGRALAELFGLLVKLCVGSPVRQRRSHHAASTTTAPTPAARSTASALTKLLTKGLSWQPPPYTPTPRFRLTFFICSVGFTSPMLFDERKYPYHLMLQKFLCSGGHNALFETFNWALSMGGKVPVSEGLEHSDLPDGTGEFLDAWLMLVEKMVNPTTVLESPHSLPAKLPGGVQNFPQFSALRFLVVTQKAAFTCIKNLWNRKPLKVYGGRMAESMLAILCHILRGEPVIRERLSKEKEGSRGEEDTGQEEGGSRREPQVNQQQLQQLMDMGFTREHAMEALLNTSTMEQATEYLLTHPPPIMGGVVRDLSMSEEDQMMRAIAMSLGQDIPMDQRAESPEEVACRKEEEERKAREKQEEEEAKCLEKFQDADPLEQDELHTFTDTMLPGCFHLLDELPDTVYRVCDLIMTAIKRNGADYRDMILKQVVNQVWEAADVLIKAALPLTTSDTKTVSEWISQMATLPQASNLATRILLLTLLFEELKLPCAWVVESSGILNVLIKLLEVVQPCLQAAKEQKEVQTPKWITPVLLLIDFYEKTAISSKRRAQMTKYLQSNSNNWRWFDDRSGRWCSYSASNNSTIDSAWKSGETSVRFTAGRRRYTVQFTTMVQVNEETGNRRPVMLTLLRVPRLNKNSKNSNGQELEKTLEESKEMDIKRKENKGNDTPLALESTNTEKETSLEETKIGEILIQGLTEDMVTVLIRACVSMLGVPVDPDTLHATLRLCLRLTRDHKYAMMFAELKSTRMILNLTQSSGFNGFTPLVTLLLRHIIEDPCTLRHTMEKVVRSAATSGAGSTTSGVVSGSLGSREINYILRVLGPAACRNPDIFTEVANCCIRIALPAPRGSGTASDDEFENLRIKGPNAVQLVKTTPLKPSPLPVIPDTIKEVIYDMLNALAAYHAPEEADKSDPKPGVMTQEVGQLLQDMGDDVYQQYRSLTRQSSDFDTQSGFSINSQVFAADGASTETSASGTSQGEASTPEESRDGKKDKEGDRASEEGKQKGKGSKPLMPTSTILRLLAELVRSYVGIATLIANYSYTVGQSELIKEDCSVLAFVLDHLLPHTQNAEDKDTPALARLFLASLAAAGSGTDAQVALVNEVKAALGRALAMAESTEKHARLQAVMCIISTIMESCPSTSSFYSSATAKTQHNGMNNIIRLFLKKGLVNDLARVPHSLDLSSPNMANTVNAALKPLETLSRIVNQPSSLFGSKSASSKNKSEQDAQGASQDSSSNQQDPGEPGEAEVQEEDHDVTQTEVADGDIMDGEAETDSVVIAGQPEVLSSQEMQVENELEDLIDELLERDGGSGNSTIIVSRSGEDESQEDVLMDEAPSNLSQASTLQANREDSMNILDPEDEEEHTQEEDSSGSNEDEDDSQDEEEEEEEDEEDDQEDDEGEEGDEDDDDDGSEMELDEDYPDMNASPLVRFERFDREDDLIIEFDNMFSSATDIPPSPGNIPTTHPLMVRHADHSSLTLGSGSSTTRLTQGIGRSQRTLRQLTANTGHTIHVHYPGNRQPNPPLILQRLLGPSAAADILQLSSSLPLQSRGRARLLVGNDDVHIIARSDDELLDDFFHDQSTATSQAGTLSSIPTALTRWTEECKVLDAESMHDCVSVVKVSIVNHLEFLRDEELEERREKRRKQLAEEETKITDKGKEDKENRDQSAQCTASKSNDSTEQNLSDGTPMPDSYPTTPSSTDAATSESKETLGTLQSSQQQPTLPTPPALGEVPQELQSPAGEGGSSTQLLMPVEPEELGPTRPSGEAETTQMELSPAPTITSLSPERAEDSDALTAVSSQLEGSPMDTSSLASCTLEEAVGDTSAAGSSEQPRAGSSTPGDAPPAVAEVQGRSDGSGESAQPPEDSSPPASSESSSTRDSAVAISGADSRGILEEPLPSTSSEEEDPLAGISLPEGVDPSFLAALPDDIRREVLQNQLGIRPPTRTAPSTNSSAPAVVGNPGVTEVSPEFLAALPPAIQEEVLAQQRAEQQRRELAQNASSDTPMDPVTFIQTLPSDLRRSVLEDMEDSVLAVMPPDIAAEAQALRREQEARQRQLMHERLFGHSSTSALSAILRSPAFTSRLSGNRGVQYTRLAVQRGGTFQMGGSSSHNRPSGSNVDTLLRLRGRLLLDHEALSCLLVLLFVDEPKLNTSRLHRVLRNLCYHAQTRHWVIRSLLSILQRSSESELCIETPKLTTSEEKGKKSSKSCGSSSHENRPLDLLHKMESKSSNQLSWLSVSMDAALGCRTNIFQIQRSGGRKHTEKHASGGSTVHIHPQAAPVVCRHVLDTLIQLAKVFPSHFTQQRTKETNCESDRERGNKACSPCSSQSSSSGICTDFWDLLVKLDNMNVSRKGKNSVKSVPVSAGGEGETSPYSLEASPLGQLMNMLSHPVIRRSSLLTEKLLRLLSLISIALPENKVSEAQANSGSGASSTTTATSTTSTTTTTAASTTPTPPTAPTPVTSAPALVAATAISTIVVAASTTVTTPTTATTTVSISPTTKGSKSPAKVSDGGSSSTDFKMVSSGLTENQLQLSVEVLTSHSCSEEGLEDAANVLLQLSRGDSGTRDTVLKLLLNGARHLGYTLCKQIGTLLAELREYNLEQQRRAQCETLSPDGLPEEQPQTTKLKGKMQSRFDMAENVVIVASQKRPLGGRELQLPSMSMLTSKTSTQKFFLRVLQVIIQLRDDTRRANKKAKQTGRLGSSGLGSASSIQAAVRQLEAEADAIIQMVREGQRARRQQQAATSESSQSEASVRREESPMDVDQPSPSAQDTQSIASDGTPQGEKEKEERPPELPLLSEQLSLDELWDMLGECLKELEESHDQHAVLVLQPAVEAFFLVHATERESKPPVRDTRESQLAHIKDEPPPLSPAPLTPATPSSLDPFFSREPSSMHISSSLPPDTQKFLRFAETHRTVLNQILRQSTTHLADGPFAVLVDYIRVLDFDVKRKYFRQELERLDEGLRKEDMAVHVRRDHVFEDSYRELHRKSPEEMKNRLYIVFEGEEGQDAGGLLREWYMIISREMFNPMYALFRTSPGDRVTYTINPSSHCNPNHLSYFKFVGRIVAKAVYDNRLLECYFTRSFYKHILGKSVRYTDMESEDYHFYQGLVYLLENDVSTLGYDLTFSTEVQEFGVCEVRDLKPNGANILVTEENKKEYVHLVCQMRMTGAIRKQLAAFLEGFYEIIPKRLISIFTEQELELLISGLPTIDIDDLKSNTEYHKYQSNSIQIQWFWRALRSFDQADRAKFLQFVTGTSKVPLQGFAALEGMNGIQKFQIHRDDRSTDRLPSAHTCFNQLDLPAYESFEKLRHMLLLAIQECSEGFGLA

Target: GST-tagged full length (FL) TBP (UniProt P20226)
Assay: pull-down; GST-tagged TBP (FL, DBD, TAD) used to pull down purified recombinant Huwe1; western blot with anti-Huwe1 and anti-GST antibodies; both purified

binding: binds
Substance: Huwe1, purified recombinant His-tagged wild type (from UniProt Q7Z6Z7 1-4374) (enzyme)
